Reference: paper doi:10.1101/2024.05.31.596839
These are yes or no findings as the source states them, for the method shown.

Tests used:
[1] = biological target: T1, Aubergine (Drosophila) (UniProt O76922); test: ReLo
T1 sequence: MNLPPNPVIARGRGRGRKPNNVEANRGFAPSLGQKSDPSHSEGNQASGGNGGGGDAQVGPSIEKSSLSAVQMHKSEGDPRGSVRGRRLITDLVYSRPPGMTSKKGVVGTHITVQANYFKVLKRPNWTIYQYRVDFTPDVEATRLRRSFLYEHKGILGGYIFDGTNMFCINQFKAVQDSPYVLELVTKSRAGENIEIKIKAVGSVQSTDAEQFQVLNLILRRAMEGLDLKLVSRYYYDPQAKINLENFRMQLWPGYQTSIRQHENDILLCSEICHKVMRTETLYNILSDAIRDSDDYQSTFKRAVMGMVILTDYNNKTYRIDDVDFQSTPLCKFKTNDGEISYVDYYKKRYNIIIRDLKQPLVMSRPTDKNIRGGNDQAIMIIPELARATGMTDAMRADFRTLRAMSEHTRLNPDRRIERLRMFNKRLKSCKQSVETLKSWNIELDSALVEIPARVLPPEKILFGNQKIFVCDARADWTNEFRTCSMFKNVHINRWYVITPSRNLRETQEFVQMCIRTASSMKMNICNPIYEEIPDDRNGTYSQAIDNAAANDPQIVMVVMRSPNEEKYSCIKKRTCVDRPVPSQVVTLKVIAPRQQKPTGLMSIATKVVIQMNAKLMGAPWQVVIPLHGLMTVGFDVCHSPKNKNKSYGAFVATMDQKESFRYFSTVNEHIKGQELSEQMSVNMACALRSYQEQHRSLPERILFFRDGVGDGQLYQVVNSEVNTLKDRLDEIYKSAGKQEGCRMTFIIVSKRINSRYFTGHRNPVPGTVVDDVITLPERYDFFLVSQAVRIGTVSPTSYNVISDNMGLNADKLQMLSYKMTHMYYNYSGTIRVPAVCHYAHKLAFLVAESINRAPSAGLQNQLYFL

[2] = biological target: T2, Krimper (Drosophila) (UniProt A1ZAC4); test: ReLo
T2 sequence: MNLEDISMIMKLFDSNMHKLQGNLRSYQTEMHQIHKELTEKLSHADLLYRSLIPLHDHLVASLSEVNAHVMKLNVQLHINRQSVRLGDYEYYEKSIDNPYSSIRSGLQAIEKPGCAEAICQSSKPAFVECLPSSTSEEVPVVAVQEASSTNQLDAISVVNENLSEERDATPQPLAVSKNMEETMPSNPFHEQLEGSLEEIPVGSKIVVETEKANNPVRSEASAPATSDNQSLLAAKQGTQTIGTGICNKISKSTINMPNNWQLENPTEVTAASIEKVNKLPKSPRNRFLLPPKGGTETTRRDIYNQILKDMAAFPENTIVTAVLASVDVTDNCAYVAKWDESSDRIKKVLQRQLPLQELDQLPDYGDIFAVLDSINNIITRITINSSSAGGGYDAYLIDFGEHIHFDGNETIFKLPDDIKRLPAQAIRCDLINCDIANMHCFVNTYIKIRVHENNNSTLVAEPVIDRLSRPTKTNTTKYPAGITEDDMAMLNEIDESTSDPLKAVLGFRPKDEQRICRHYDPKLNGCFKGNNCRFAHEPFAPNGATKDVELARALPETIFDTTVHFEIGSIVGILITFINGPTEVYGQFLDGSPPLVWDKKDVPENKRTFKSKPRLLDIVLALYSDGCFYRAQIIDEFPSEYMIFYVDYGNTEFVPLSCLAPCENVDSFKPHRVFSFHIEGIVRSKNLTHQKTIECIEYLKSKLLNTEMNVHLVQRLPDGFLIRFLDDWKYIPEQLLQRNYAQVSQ

binding [1]: no binding | binding [2]: no binding
B1: Maelstrom (protein, UniProt Q9VNS0 1-459)
chain: MAPKKHSGFMMFVNEWRNRNAEGRRMTLAQAVSHCGTIWEKMNTQQRGPYNSGGKDANVAQRAKRESSNGHGQVDKAQREATESLMDMKRTIERLVLNAKMSHDLENAKFVFVAFNYFTKALTTDVYVPAEFAACEYSLKEGIRSIYSTMIDPGQIIFGQGSDALLHSSTTHDLPLPPNALGEKNMTKLYRNIVDYLSKCQGKGKTLVVFTPAENITMVKSCFRYLECDDDFRDGGEKIQVFDIQYLLFILKKEVMNVADLNDEKINKFATDAFFKKDFFEFTAGIACQYHEDNDRTKYCTQSMVTRWAYTFTDFMCGDLAITVQPGKHIPAQTKPNYLIISSYASSLDHESSFDSFYSLPGSGVKKESQPEACSLSSSRLSVASSSYKPIDHTSFAANLNEVSEFPSLGMRNSSKHHGIAASAQREWNARNLPTHSRLIRKVSDNDFSVNGADGKLKK
